Literature values, collected in patent publication US5162373A, “Methods and improved formulations for the determination and treatment of malignant disease in patients” (priority 1989, dated 1992).
At least one structure is not confirmed: it was looked up by name or label, or the drawing left a doubt.

System: intestinal epithelium / gut mucosa
Conditions: mucosal cell loss from chemotherapy; cited from earlier work

Nc1ccn([C@@H]2O[C@H](CO)[C@@H](O)[C@@H]2O)c(=O)n1 [arabinosylcytosine (ara-C), arabinosylcytosine]
polyamine biosynthesis during intestinal recovery: increased polyamine biosynthesis during intestinal recovery
